Our source for the binding values is paper PMC5415203.

Amino acid sequences for entries named in this document (tags omitted).
UniProt Q92878: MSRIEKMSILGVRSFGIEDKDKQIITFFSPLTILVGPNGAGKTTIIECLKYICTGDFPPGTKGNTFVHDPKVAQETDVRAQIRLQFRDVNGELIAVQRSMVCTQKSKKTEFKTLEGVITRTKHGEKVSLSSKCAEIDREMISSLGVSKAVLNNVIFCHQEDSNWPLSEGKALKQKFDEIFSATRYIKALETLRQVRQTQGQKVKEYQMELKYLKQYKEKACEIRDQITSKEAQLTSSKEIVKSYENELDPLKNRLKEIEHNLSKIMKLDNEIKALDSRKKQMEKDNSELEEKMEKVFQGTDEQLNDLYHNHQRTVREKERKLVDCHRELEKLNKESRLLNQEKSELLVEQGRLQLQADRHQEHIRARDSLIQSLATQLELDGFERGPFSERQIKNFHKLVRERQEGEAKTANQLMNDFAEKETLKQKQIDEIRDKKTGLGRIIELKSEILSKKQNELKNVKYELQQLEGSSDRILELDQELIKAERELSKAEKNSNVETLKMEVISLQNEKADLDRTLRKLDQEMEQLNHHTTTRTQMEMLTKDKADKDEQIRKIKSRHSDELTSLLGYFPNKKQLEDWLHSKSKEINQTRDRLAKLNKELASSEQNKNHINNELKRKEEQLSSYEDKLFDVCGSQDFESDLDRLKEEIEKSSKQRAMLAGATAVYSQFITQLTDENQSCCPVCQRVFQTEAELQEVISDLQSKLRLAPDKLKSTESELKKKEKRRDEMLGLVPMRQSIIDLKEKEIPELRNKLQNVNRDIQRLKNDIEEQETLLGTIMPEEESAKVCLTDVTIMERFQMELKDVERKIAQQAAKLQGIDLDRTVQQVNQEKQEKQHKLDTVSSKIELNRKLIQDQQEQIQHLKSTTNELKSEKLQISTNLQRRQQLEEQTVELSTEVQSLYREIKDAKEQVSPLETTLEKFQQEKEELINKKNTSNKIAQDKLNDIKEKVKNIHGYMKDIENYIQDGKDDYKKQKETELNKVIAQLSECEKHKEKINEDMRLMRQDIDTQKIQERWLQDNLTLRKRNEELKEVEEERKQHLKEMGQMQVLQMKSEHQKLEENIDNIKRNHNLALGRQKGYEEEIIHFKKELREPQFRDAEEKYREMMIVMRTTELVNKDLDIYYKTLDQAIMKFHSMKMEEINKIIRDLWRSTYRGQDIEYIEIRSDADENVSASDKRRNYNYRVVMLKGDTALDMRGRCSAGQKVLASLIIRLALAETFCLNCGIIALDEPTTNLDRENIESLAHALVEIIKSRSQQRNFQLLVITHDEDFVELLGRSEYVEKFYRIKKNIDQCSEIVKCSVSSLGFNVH
UniProt Q9QR71: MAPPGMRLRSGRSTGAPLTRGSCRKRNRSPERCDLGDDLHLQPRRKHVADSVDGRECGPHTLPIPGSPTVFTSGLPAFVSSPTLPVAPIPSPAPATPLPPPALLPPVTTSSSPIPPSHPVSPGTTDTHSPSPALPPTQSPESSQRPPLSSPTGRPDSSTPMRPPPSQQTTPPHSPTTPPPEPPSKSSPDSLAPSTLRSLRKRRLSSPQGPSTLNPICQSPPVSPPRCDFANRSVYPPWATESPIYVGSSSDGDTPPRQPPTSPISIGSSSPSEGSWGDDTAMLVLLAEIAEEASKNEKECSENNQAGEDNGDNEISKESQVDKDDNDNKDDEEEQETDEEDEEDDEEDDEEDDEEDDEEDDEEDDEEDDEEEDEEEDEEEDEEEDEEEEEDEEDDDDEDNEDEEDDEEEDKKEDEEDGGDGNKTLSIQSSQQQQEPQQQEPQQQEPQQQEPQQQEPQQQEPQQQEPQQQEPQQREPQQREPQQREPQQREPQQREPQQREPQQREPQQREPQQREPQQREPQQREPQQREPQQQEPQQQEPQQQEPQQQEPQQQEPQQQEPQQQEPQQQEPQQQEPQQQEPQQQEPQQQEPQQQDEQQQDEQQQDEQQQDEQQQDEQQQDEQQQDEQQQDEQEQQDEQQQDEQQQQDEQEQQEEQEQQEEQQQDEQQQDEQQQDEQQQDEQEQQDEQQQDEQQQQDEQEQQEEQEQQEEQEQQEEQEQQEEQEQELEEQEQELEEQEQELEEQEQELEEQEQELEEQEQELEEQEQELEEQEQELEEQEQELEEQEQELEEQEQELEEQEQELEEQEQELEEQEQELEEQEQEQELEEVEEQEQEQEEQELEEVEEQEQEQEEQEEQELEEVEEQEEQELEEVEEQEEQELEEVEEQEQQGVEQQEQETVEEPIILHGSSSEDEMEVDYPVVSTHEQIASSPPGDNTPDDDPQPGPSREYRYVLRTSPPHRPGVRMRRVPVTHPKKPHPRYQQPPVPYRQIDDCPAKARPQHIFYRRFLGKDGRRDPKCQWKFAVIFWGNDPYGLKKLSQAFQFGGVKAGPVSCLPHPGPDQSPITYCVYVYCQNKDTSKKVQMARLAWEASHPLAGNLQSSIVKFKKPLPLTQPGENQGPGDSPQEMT
UniProt O60934: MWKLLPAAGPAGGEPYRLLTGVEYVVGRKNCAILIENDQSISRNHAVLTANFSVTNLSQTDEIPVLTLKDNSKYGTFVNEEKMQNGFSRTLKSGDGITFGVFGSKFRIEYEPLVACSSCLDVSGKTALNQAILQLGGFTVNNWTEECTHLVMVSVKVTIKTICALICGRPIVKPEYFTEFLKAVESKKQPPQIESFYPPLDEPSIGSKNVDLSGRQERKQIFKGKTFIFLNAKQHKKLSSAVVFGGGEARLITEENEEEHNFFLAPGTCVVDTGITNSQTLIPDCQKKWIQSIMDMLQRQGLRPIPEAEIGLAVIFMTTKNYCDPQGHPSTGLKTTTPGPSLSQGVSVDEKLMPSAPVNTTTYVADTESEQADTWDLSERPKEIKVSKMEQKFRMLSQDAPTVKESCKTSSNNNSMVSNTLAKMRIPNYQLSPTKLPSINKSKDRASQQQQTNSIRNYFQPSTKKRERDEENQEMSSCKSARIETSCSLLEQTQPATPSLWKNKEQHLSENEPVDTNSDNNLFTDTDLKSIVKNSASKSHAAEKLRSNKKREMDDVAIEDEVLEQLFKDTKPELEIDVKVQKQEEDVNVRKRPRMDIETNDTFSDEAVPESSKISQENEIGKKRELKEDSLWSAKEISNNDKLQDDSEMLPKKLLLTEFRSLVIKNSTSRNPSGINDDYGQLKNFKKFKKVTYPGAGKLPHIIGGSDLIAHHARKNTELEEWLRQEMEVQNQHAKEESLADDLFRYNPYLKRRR

Assay [1] concerns the target Rad50, endogenous (human (endogenous in BC3, BCBL-1, BrK.219, TrK.219, HEK293, HEK293T)) (UniProt Q92878). Briefly: co-IP; endogenous proteins; whole cell lysates of BC3, BCBL-1 and BrK.219 cells in TBS-T buffer, treated with benzonase; overnight with anti-Rad50-antibody-coupled beads or IgG-control beads; immunoblot for LANA.
The target of assay [2] is KSHV Latency-Associated Nuclear Antigen (LANA), endogenous in KSHV-infected cells (Kaposi Sarcoma Herpesvirus (KSHV, HHV-8)) (UniProt Q9QR71). In words: co-IP; endogenous proteins; whole cell lysates of KSHV-infected cells (BC3, BCBL-1, BrK.219, TrK.219) in TBS-T buffer, treated with benzonase; overnight with anti-LANA-antibody-coupled sepharose beads or IgG-control beads; immunoblot.

For assay [3] the target is unchanged. Briefly: co-IP; endogenous proteins; cytoplasmic extract of BCBL-1 cells (NE-PER kit); overnight with LANA-antibody or IgG-control beads; immunoblot.
The target is the same in assay [4]. Briefly: co-IP; endogenous proteins; whole cell lysates of KSHV-infected cells (BC3, BCBL-1, BrK.219, TrK.219) in TBS-T buffer, treated with benzonase; overnight with anti-LANA-antibody-coupled sepharose beads or IgG-control beads; immunoblot. This is another data set of the same source.

No constants are given. Whether binding was seen depends on the method and setting. In cells and extracts the contact can be indirect. Some results given as binding are weak or reduced against the parent protein; the word gives no strength.

As to “KSHV Latency-Associated Nuclear Antigen (LANA), endogenous in KSHV-infected cells (from UniProt Q9QR71 1-1129)”, the binding result in assay [1] is given as “binds”.

Turning to “NBS1, endogenous (from UniProt O60934 1-754)”, the binding result in assay [2] is “binds”.

For “Rad50, endogenous (from UniProt Q92878 1-1312)”, the binding result in assay [2] and in assay [3] was “binds” throughout.

B1: CARD9, endogenous (protein, UniProt Q9H257 1-536)
chain: MSDYENDDECWSVLEGFRVTLTSVIDPSRITPYLRQCKVLNPDDEEQVLSDPNLVIRKRKVGVLLDILQRTGHKGYVAFLESLELYYPQLYKKVTGKEPARVFSMIIDASGESGLTQLLMTEVMKLQKKVQDLTALLSSKDDFIKELRVKDSLLRKHQERVQRLKEECEAGSRELKRCKEENYDLAMRLAHQSEEKGAALMRNRDLQLEIDQLKHSLMKAEDDCKVERKHTLKLRHAMEQRPSQELLWELQQEKALLQARVQELEASVQEGKLDRSSPYIQVLEEDWRQALRDHQEQANTIFSLRKDLRQGEARRLRCMEEKEMFELQCLALRKDSKMYKDRIEAILLQMEEVAIERDQAIATREELHAQHARGLQEKDALRKQVRELGEKADELQLQVFQCEAQLLAVEGRLRRQQLETLVLSSDLEDGSPRRSQELSLPQDLEDTQLSDKGCLAGGGSPKQPFAALHQEQVLRNPHDAGLSSGEPPEKERRRLKESFENYRRKRALRKMQKGWRQGEEDRENTTGSDNTDTEGS
Consider B1, for which the binding result in assay [4] is “binds”.
